Experimental findings from patent publication US7786054B2, “Biocide for well stimulation and treatment fluids” (Kemira Chemicals, Inc., priority 2006, dated 2010) are described below.

This data set is described as follows: Friction loop compatibility of biocide with anionic friction reducer.

As for `O=S(=O)([O-])[O-].OC[P+](CO)(CO)CO.OC[P+](CO)(CO)CO` [THPS, tetra-kis-hydroxymethyly-phosphonium sulfate], the “% FR through the last 10 seconds of the test (final % FR)” value (1000 ppm biocide, control 46.7%) was determined as 27.8%. Moreover, the “original friction reduction capacity of the polymer eliminated” value (1,000 ppm dosage) is given as “over 40%”. Further, the “drop in absolute friction reduction” value (1,000 ppm dosage, versus control) was 19.9%. The “% FR relative to control, 150 to 420 second time interval” value (total biocide loading 1000 ppm, FIG. 6) is reported as “severe performance degradation of the friction reducer”.
